In PubChem BioAssay AID2549 (National Center for Advancing Translational Sciences (NCATS), 2010):
Several values for one entry are separate records, joined by “and”; a condition that tells them apart may be missing. Identical values can stand only once. Out of some 240,000 compounds screened, about 1,300 (0.54%) were called active. Inconclusive means that the source gave no clear call. Such entries were picked first, then a sample of the others. The call rests on the fitted dose curve; in most records, active means well fitted inhibition curve with a large enough effect; inconclusive means small, poorly fitted or top-dose-only effect; inactive means flat fitted curve, though single readings scatter. A potency beside an inconclusive call is a rough fit, not a confirmed value.

Chains of the proteins cited; added tags and fusions are not shown. Lines headed by an entry give the natural chain unless they say otherwise; changes in a name come on top.
UniProt P46063: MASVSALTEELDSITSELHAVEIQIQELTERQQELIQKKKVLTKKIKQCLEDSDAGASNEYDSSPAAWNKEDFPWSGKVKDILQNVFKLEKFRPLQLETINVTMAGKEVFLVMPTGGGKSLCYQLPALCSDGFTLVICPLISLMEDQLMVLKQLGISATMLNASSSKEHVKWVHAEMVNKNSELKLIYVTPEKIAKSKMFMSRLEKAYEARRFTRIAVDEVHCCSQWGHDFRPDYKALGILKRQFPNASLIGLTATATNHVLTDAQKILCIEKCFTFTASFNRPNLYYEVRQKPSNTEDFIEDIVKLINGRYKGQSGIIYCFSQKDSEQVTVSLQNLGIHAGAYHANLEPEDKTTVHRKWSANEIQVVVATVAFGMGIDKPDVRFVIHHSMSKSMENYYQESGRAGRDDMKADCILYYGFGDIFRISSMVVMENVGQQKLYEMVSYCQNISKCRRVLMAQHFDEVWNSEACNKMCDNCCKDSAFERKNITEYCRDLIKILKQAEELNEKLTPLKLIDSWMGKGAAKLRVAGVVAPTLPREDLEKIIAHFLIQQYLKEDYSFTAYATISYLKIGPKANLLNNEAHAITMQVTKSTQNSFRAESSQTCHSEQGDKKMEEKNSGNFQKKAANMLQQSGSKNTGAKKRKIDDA

Biological target: ATP-dependent DNA helicase Q1 (Homo sapiens) (UniProt P46063)
Assay: qHTS Assay for Inhibitors of RecQ-Like Dna Helicase 1 (RECQ1); further: nearly all actives have a fitted effect of over 30% in size
Details: RECQ1 DNA unwinding, red fluorescence kinetic read; series mostly up to 57.3 µM
Method in brief: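 RECQ1T1 50 nM; forked duplex (20 bp + 30-nt ss tails) 200 nM, ATP 2 mM final; pH 8.0, 2 mM MgCl2, 2.5 ug/ml poly(dI-dC); 15 min compound preincubation; discontinuous kinetic read over 2 h at RT.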
Potency means the concentration at half of the fitted maximal effect.

Compound	Potency
COc1cc(/C=C2\C(=O)N(CCC#N)N=C2C)ccc1OCC(=O)Nc1ccccc1	inactive
CCn1nc(C)cc1C(=O)N1CCc2c([nH]c3ccccc23)C1c1cc(F)ccc1F (centres undefined)	inconclusive: 17.8 µM [inhibitor, single point]
Cn1cccc1Cc1nnc(SCC(=O)Nc2ccc3c(c2)OCCO3)n1-c1ccc(F)cc1	inconclusive: 39.8 µM [inhibitor, single point]
CNCC(O)CN1CCN(c2ccccc2OC)CC1 (centres undefined)	inconclusive: 2.82 µM [inhibitor, partial curve]
COc1ccccc1NC(=S)NC(=O)/C=C/c1ccco1	inconclusive: 35.5 µM [inhibitor, single point]
COCCCNc1c2c3c(cccc3[nH]c1=O)C(=O)c1ccccc1-2	active: 25.1 µM
CCC(C(=O)OCC(=O)Nc1cc(C)ccc1OC)c1ccccc1 (centres undefined)	inconclusive: 31.6 µM [inhibitor, partial curve, poor fit]
O=C(O)c1ccccc1-c1ccc(/C=c2\sc3nc4cc(Br)cnc4n3c2=O)o1	active: 14.1 µM
O=C(NCc1ccccc1)C1=C[C@H](C2CC2)C[C@H](OCc2ccc(CO)cc2)O1	inactive
C=C(C)CN(CC)c1nc(N)c(C#N)c(CC#N)c1C#N	inconclusive: 39.8 µM [inhibitor, single point]
Cc1ccc(CC2CC(=O)N(c3ccc4c(c3)OCCO4)C2=O)cc1 (centres undefined)	inconclusive: 3.16 µM [inhibitor, partial curve]
CCNc1cc(O)ccc1C	active: 28.2 µM
CC(C)NC(=O)c1ccccc1NC(=O)Cc1ccc(Cl)cc1	inconclusive: 0.501 µM [inhibitor, partial curve, poor fit]
Cc1cc(C)c(S(=O)(=O)N2CCN=C2c2ccccc2)c(C)c1	inconclusive: 39.8 µM [inhibitor, single point]
COC(=O)c1cccc(CSc2nc3ccccc3[nH]2)c1	inconclusive: 4.47 µM [inhibitor, full curve]
COc1c(O)cc2oc(-c3ccc(O)c(O)c3)cc(=O)c2c1O	active: 11.2 µM and active: 8.91 µM
Cc1ccccc1NC(=O)CSc1ccsc1[N+](=O)[O-]	inconclusive: 39.8 µM [inhibitor, single point]
N#Cc1ccc(CSc2nnc(NC(=O)C3CC(=O)N(c4ccc5c(c4)OCCO5)C3)s2)cc1 (centres undefined)	active: 28.2 µM
Cc1c(C(=O)OCC[N+]2(C)CCCCC2)oc2ccccc12	inactive
Cc1ccc(Cn2nnc3c(=O)[nH]c(C4CCN(S(=O)(=O)c5ccccc5)CC4)nc32)cc1	inconclusive: 25.1 µM [inhibitor, partial curve]
N/C(=N\OC(=O)c1cccs1)c1cccc([N+](=O)[O-])c1	active: 44.7 µM
O=C1c2c(O)cc(O)cc2O[C@H](c2ccc(O)c(O)c2)[C@@H]1O	active: 17.8 µM
O=C(N/C=C/c1ccco1)NCc1ccccc1	inconclusive: 35.5 µM [inhibitor, single point]
CN1CCc2c(sc3c2C(=O)NC(c2ccccn2)N3)C1 (centres undefined)	inconclusive: 35.5 µM [inhibitor, single point]
CC1=Nc2ccccc2/C1=C/c1sc(=N)n(-c2nccs2)c1O	active: 17.8 µM

Compound	Potency
CC(C)(C)NC(=O)CSc1nccn1Cc1ccccc1	inactive
COc1ccc(OC)c(C(=O)c2ccc(C(=O)N3CCN(Cc4csc(C)n4)CC3)cc2)c1	inactive
Nc1ccc(N)c(C(=O)O)c1	active: 11.2 µM
O=C1NC(=S)S/C1=C1\Sc2ccccc2N1CCCS(=O)(=O)O	inactive
CCc1cc2c(=O)[nH]c(-c3ccccn3)nc2s1	inactive
CCCCCCOC1(c2ccccc2)OC(=O)c2ccccc21 (centres undefined)	active: 39.8 µM
COc1cccc(C2CC(c3ccccc3C)n3nc(N)nc3N2)c1 (centres undefined)	inconclusive: 1.12 µM [inhibitor, full curve, poor fit]
CC(=O)Oc1cc(-c2coc3cc(OC(C)=O)c(OC(C)=O)c(OC(C)=O)c3c2=O)cc(OC(C)=O)c1OC(C)=O	active: 1 µM
Cc1ccc(-c2nn(-c3ccccc3)cc2C=O)o1	inconclusive: 39.8 µM [inhibitor, single point]
S=C(NCc1ccco1)Nc1ccccc1	inactive
COc1ccc2[nH]cc(CCNc3ncnc4ccc(-c5ccoc5)cc34)c2c1	inconclusive: 31.6 µM [inhibitor, single point]
c1ccc2c(NC3C4CC5CC(C4)CC3C5)nc(N3CCOCC3)nc2c1 (centres undefined)	inconclusive: 35.5 µM [inhibitor, single point]
O=c1cc(-c2ccc(O)cc2)oc2c(O)c(O)c(O)c(O)c12	active: 12.6 µM
CN1/C(=C\C(=O)COC(=O)Cn2nnc(-c3ccccc3)n2)C(C)(C)c2ccccc21	inconclusive: 35.5 µM [inhibitor, single point]
CCn1c(=O)[nH]c(=O)c2c(N)c(C(=O)c3cc(F)ccc3F)sc21	inactive
O=C(CSc1nncn1-c1ccccc1)Nc1ccc(N2CCOCC2)cc1	inactive
CCCCC/C=C\C/C=C\C/C=C\CCCCCCC(=O)NCC(=O)O	inactive
Cc1ccc(NC(=O)c2ccccc2)cc1	inactive
CCc1cc(=O)n2[nH]c(C)c(-c3ccccc3OC)c2n1	inactive
N#CCC(=O)N/N=C/c1ccc(OCC(=O)Nc2ccc(F)cc2)cc1	inconclusive: 3.16 µM [inhibitor, partial curve, poor fit]
CCOC(=O)c1c(C)c(C(=O)NC2CCCCC2)c(C)n1CC	inconclusive: 22.4 µM [inhibitor, partial curve]
O=C(COC(=O)c1ccccc1NS(=O)(=O)c1cccs1)NC1CCCCC1	inactive
C/C(C/C(C)=C1/SC(=S)NC1=O)=C1\SC(=S)NC1=O	active: 14.1 µM
CC(C)C[C@H](NC(=O)c1nc[nH]c1C(=O)NC(c1ccccc1)c1ccccc1)C(=O)OC(C)(C)C	inconclusive: 14.1 µM [inhibitor, partial curve]
O=[N+]([O-])c1ccc(Sc2cccc[n+]2[O-])c2nonc12	inconclusive: 35.5 µM [inhibitor, single point]

Compound	Potency
O=C(CCn1c(=O)oc2ccccc21)N(Cc1ccccc1)c1ccccc1	inconclusive: 0.0282 µM [inhibitor, full curve, poor fit]
CCOC(=O)CNC(=O)CSc1nnc(-c2ccco2)n1Cc1ccco1	inactive
CC1=NOC(=O)/C1=C\c1ccc(-c2cccc(Cl)c2)o1	inconclusive: 39.8 µM [inhibitor, single point]
O=C(C1=C[C@H](c2ccccc2)C[C@H](OCc2ccc(CO)cc2)O1)N1CCN(Cc2ccc3c(c2)OCO3)CC1	inconclusive: 39.8 µM [inhibitor, single point]
CC(C)=CCC/C(C)=C/CCC(C)NCCN1CCNCC1 (centres undefined)	inconclusive: 39.8 µM [inhibitor, single point]
Cc1cc(C)c(C#N)c(SCc2ccc(C#N)cc2)n1	inconclusive: 6.31 µM [inhibitor, single point]
Cc1cc(C)cc(N(C(=O)c2ccc(Br)o2)C2C=CS(=O)(=O)C2)c1 (centres undefined)	inconclusive: 0.891 µM [inhibitor, partial curve, poor fit]
CNc1n[nH]c(=S)s1	inactive
COC(=O)c1ccc(/C=C(\C#N)c2ccccn2)cc1	inactive
CCc1nc2ccccc2n1CCc1ccccc1	inconclusive: 28.2 µM [inhibitor, partial curve]
N#Cc1c(N2CCCC2)nc(N)c2c(N)nc(N3CCCC3)cc12	inconclusive: 22.4 µM [inhibitor, single point]
O=C(Nc1ccc(Oc2c(F)c(F)c(F)c(F)c2F)cc1)OC1CCN2Cc3ccccc3N=C12 (centres undefined)	inconclusive: 39.8 µM [inhibitor, single point]
CC(=O)C1C(=O)c2c(cccc2[N+](=O)[O-])C1=Nc1cccc(Cl)c1 (centres undefined)	inconclusive: 22.4 µM [inhibitor, single point]
O=c1nc2s/c(=C\c3ccco3)c(=O)n2nc1Cc1ccc(F)cc1	active: 22.4 µM
CSc1nc(NCCOCCO)c2sc3nc(-c4ccco4)c4c(c3c2n1)CCC4	active: 25.1 µM
O=S1(=O)C2CC3C=CC2(CN1Cc1ccccc1)O3 (centres undefined)	inactive
COC(=O)[C@@]1(Cc2ccc(F)cc2)[C@H]2c3cc(C(=O)N(C)C)n(CCc4ccc(OC)c(Br)c4)c3C[C@H]2CN1C(=O)c1ccccc1	inconclusive: 31.6 µM [inhibitor, partial curve]
COC(=O)c1ccccc1NC(=O)c1noc2c1CCC2	inconclusive: 31.6 µM [inhibitor, single point]
CC1CCC/C(=C\Nc2ccc(O)cc2)C1=O (centres undefined)	inconclusive: 28.2 µM [inhibitor, single point]
O=C1CCCC2=C1C(c1ccco1)Nc1ccc3ccccc3c12 (centres undefined)	active: 10 µM
Cc1cc(C)cc(-n2cccc2/C=C2/C(=N)N3C(=NC2=O)SN=C3S(C)(=O)=O)c1	active: 31.6 µM
COC(=O)c1ccc2c(c1)C(C)(C)C(/C=C/c1ccc(OC)c(OC)c1OC)=[N+]2C	inconclusive: 6.31 µM [inhibitor, full curve]
COCCNC(=O)c1cc2ncc(Br)cn2n1	inconclusive: 0.355 µM [inhibitor, partial curve, poor fit]
CS(=O)(=O)N1CCN(c2ccc([N+](=O)[O-])c(NCc3ccc(Cl)cc3)c2)CC1	active: 31.6 µM
